These are yes or no findings as the source states them, for the method shown. In cells and extracts the contact can be indirect. Some binding calls cover weakened binding; strength is not graded here.

Data on two molecules can be found in article PMC4286236.

Experiment [1] has as its target Danio rerio PlxnA3 extracellular + TM + JM (amino acids 1-1314) M1281L, BRET^2 constructs (Danio rerio) (UniProt B0S5N4). Put plainly: FRET or BRET; BRET^2 in COS-7 cells co-transfected with PlxnA3(1-1314)-RLuc and PlxnA3(1-1314)-GFP^2; DeepBlueC; normalised energy transfer efficiency ratio; without Nrp2a and SEMA3F. A general note: BRET reads energy transfer from a luciferase to a nearby fluorophore.

The target is the same in experiment [2]. Kind of experiment: FRET or BRET; BRET^2 in COS-7 cells co-transfected with PlxnA3(1-1314)-RLuc, PlxnA3(1-1314)-GFP^2 and full-length FLAG-tagged Nrp2a, treated with AP-SEMA3F expression media for a minimum of 1.5 hours at 37 C, 5% CO2.
Experiment [3] concerns the target Danio rerio PlxnA3 extracellular + TM + JM (amino acids 1-1314) M1281F, BRET^2 constructs (Danio rerio) (UniProt B0S5N4). The experiment is described as above.

B1: Danio rerio PlxnA3 extracellular + TM + JM (amino acids 1-1314) M1281L, BRET^2 constructs (receptor, UniProt B0S5N4 21-1314)
chain: FPMILSERPEVTGSFKVKDTSLTHLTVHRKTGEVFVGAINRVYKLSANLTETRSHQTGPVEDNAKCYPPPSVRACTQKLESTDNVNKLLLVDYAGNRLVACGSIWQGVCQFLRLEDLFKLGEPHHRKEHYLSGAKESDGMAGVVVGDDDGDLKKKKKGGSRLFIGAAIDGKSEYFPTLSSRKLVADEESVNMFSLVYQDEFVSSQIKIPSDTLSQYPAFDIYYVYGFSSRTYIYFLTLQLDTQLTQVDVTGEKFFTSKIVRMCSNDTEFYSYVEFPLGCTKDGVEYRLVQAAYKHRPGKILAQALGLSEDEDVLFVIFSQGQKNRANPPRETVLCLFTLHQINLAMRERIKSCYRGEGKLSLPWLLNKELPCINTPKQIGDDFCGLVLNQPLGGLMVIEGIPLFDDRTDGMASVAAYTYGDHSVVFVGTRSGHLKKIRVNGVPPPSENALLYETVTVVEGSPILRDMVFSPDYQYIYLLSDKQVSRLPVESCSQYSSCKTCLGSGDPHCGWCVLHNKCSRKEACEKWAEPLHFSTELKQCVDITVTPDNMSVTSVSTQLSVKVANVPNLSAGVTCVFEELTESPGEVLAEGQILCMSPSLRDVPSVTQGYGDKRVVKLSLKSKETGLKFITTDFVFYNCSVLQSCSSCVSSPFPCNWCKYRHICTNNVAECSFQEGRVSSAEGCPQILPSSDILVPAGIVRPITLRARNLPQPQSGQKNYECVFNIQGKVQRIPAVRFNSSCIQCQNTSYWYEGNEMGDLPVDFSIVWDGDFPIDKPSSMRALLYKCEAQRDSCGLCLKADSTFECGWCLADKKCLLKQHCPSAEHNWMHQGRRNIRCSHPRITKIRPLTGPKEGGTRVTIEGENLGLQVREITHVRVAGVRCNPAAAEYISAERIVCDMEESLMSSPPGGPVELCIGDCSAEYRTQSTQTYSFVMPSFSRVRPEKGPVSGGTRLTISGRHLDAGSAVTVFLAQEECLFVRRTVREIVCVTPPSASGSGPSSVKLFIDKAEITSDTRYIYTEDPNISTIEPNWSIINGSTSLTVTGTNLLTIQEPKVRAKYGGVETTNISSLVNDSVMTCLAPGIIYTKREAPESGVHPDEFGFILDHVSALLILNGTPFTYYPNPTFEPLGNAGILEVKPGSPIILKGKNLIPPAPGNIRLNYSVTIGETPCLLTVSESQLLCDSPDLTGEQRVMILVGGLEYSPGMLHIYSDSTLTLPAIIGIGAGGGVLLIAIIAVLIAYKRKTRDADRTLKRLQLQLDNLESRVALECKEAFAELQTDIQELTNDMDGVK
On to B1, for which the binding entry in experiment [1] and in experiment [2] was “binds” each time.

B2: Danio rerio PlxnA3 extracellular + TM + JM (amino acids 1-1314) M1281F, BRET^2 constructs (receptor, UniProt B0S5N4 21-1314)
chain: FPMILSERPEVTGSFKVKDTSLTHLTVHRKTGEVFVGAINRVYKLSANLTETRSHQTGPVEDNAKCYPPPSVRACTQKLESTDNVNKLLLVDYAGNRLVACGSIWQGVCQFLRLEDLFKLGEPHHRKEHYLSGAKESDGMAGVVVGDDDGDLKKKKKGGSRLFIGAAIDGKSEYFPTLSSRKLVADEESVNMFSLVYQDEFVSSQIKIPSDTLSQYPAFDIYYVYGFSSRTYIYFLTLQLDTQLTQVDVTGEKFFTSKIVRMCSNDTEFYSYVEFPLGCTKDGVEYRLVQAAYKHRPGKILAQALGLSEDEDVLFVIFSQGQKNRANPPRETVLCLFTLHQINLAMRERIKSCYRGEGKLSLPWLLNKELPCINTPKQIGDDFCGLVLNQPLGGLMVIEGIPLFDDRTDGMASVAAYTYGDHSVVFVGTRSGHLKKIRVNGVPPPSENALLYETVTVVEGSPILRDMVFSPDYQYIYLLSDKQVSRLPVESCSQYSSCKTCLGSGDPHCGWCVLHNKCSRKEACEKWAEPLHFSTELKQCVDITVTPDNMSVTSVSTQLSVKVANVPNLSAGVTCVFEELTESPGEVLAEGQILCMSPSLRDVPSVTQGYGDKRVVKLSLKSKETGLKFITTDFVFYNCSVLQSCSSCVSSPFPCNWCKYRHICTNNVAECSFQEGRVSSAEGCPQILPSSDILVPAGIVRPITLRARNLPQPQSGQKNYECVFNIQGKVQRIPAVRFNSSCIQCQNTSYWYEGNEMGDLPVDFSIVWDGDFPIDKPSSMRALLYKCEAQRDSCGLCLKADSTFECGWCLADKKCLLKQHCPSAEHNWMHQGRRNIRCSHPRITKIRPLTGPKEGGTRVTIEGENLGLQVREITHVRVAGVRCNPAAAEYISAERIVCDMEESLMSSPPGGPVELCIGDCSAEYRTQSTQTYSFVMPSFSRVRPEKGPVSGGTRLTISGRHLDAGSAVTVFLAQEECLFVRRTVREIVCVTPPSASGSGPSSVKLFIDKAEITSDTRYIYTEDPNISTIEPNWSIINGSTSLTVTGTNLLTIQEPKVRAKYGGVETTNISSLVNDSVMTCLAPGIIYTKREAPESGVHPDEFGFILDHVSALLILNGTPFTYYPNPTFEPLGNAGILEVKPGSPIILKGKNLIPPAPGNIRLNYSVTIGETPCLLTVSESQLLCDSPDLTGEQRVMILVGGLEYSPGMLHIYSDSTLTLPAIIGIGAGGGVLLIAIIAVLIAYKRKTRDADRTLKRLQLQFDNLESRVALECKEAFAELQTDIQELTNDMDGVK
On to B2, for which the binding entry in experiment [3] is “binds”.
